Library screen at single concentrations

Source: ChEMBL document CHEMBL3988442, “University of Dundee, Small-Polar-MMV Screening Library” (2021).

Results are given as percent effect.
How 0% and 100% were set is not recorded. Most values in the screen are low, and negative values occur.
Compounds were drawn at random from those tested, without regard to their results.
A dash means the value is not listed here; it may have been measured.

Toxoplasma: 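Assay of Toxoplasma gondii numbers, read through their beta-galactosidase reporter with a colour substrate. Tested at 10 µM. The record gives no direction; the compounds picked for IC50 retests had high values, so higher reads as fewer parasites. Size under these conditions: about 67,000 compounds, about 260 of them at 50% or above in at least one test.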
Leishmania in macrophages: 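Cell assay of Leishmania donovani living inside macrophages; the read-out is not stated. Compounds at 30 µM. Higher reads as stronger inhibition (inferred: compounds with an IC50 in retests scored well above the rest). About 69,000 compounds were tested under these conditions; 1.5% (about 1,000) showed 50% or more at least once.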

Compound | Toxoplasma | Leishmania in macrophages
CCN(Cc1ccncc1)Cc1cn(-c2ccccc2)nn1 | 3.204 | -1.789
Br.Cn1cc(CN2CCC(c3cc(COc4cccc(Cl)c4)[nH]n3)C2)cn1 (stereo unspecified) | -27.86 | 19.2
Cc1ccoc1C(=O)NCC(c1ccccc1Cl)N1CCOCC1 (stereo unspecified) | 0.5057 | 34.78
CCc1nc(C2CCCN2C(=O)CCCOc2cccc(F)c2)no1 (stereo unspecified) | -5.881 | 20.67
Cn1nc(CN2CCCCC2)c2c1CN(Cc1ccoc1)C2.O=C(O)C(F)(F)F.O=C(O)C(F)(F)F | 1.117 | 19.48
O=C(O)C(F)(F)F.O=C(O)C(F)(F)F.[H][C@@]12CCN(c3ncc(F)cn3)[C@]1([H])CC[C@@H](C(=O)NCc1ccccn1)O2 | 7.134 | -19.74
CC(=O)NCCc1nc(C(C)C)nn1-c1ccncc1C | -0.3425 | 5.879
CN1CCCCCC1C(=O)N1CCN(c2ccccc2C#N)CC1 (stereo unspecified) | -3.751 | 21.74
Cc1nc(CC2CCCN(Cc3nc4ccccc4c(=O)[nH]3)C2)no1 (stereo unspecified) | 2.101 | 18.17
Cn1cccc1C(=O)NCc1cn2c(n1)CN(S(=O)(=O)C1CC1)CC2 | -4.098 | 35.5
Cc1ccc(-c2cc(C(=O)N(C)Cc3noc4c3CCCC4)[nH]n2)o1 | -16.02 | -45.81
O=C(O)C(F)(F)F.O=C(O)C(F)(F)F.O=C(O)C(F)(F)F.[H][C@@]12COC[C@@H](N3CCN(C)CC3)[C@]1([H])CN(Cc1ccc(OC)cc1)C2 | 8.196 | 29.89
O=C(CN1C(=O)c2ccccc2CS1(=O)=O)c1ccc(Cl)cc1 | -1.011 | -4.31
Cn1ncc2cnn(CC(O)COc3cccc4[nH]ccc34)c2c1=O (stereo unspecified) | -5.401 | -9.576
CC(Cc1cccc(F)c1)NCc1cnc(N2CCN(C)CC2)nc1 (stereo unspecified) | -0.6885 | 97.99
O=C(O)C1CCN(C[C@H]2CC[C@@H](Cc3ccc4c(c3)OCO4)O2)CC1 | -7.275 | 18.6
Cc1ncnc2c1CCN(C(=O)c1ccncc1F)CC2.O=C(O)C(F)(F)F | 10.43 | -9.036
O=C(O)C(F)(F)F.[H][C@@]12CN(Cc3cc[nH]n3)C[C@]1([H])OCCN2c1cnccn1 | 5.123 | -12.42
Cc1ccc(C2(C(=O)N3CCC(n4cc(C(C)O)nn4)CC3)CC2)cc1 (stereo unspecified) | -0.699 | -10.19
Cc1cccc(-c2ccc3nc(C4CCN(CC5CC5)CC4)nn3c2)c1.O=C(O)C(F)(F)F | 38.32 | 18.15
Cn1c(C2CC2)nc2c1CCN(CCOc1ccccc1C#N)C2 | -15.31 | -18.83
Nc1nc(N)c2c(n1)OC1(CCN(C(=O)CC3CCCCN3)CC1)C2 (stereo unspecified) | -8.397 | 26.65
O=C(Cn1ccnc1)N(CCO)CCSc1ccc(Cl)cc1 | -8.687 | 13.64
O=C(O)C(F)(F)F.O=C1CC2(CCCCN2C(=O)c2ccncc2)CN1CC1CC1 (stereo unspecified) | -1.337 | 26.69
O=C(C1CCOC1)N1Cc2ccccc2OC2(CCOCC2)C1 (stereo unspecified) | 14.02 | -16.45
Cc1ccnc(CC(C)N(C)c2cc(CCN)nc(C)n2)c1 (stereo unspecified) | 1.741 | 17.13
Cc1nc(C(C)C)ncc1C(=O)N1CCc2c(nc(N(C)C)[nH]c2=O)C1 | 2.071 | 25.6
CN(CCn1cncc1-c1cnc(N2CCOCC2)nc1)C1CCCC1 | -13.81 | 22.37
CC(=O)NCCNC(=O)c1sc(-c2ccc(Cl)s2)nc1C | 1.723 | -6.989
COC(=O)c1cccn1C1CCN(C(=O)c2cc(F)ccc2C)CC1 | 3.396 | 13.57
COCCN1CCCC2(CCN(c3nccnc3N(C)C)C2)C1=O (stereo unspecified) | -7.92 | 0.8257
O=C(O)C(F)(F)F.[H][C@@]12CN(C(=O)c3ccn(C)n3)C[C@]1([H])OCCN2c1ncccn1 | 16.09 | 19.09
CC(C)C(=O)N1CCCC1C(=O)Nc1cc(C(F)(F)F)ccc1F (stereo unspecified) | 7.576 | 24.46
OC(CN(Cc1ccccc1)Cc1cccnc1)c1cccs1 (stereo unspecified) | -15.14 | 12.2
COCc1ccccc1C(=O)N1CCCC(n2nc(C)cc2C)C1 (stereo unspecified) | - | 5.909
[H][C@]12CC[C@]([H])(CN(S(=O)(=O)c3cc(Cl)ccc3OC)C1)N(C)C2=O | 2.013 | 29.09
CCC(NC(=O)NCc1cccc(N(C)C)n1)c1cccs1 (stereo unspecified) | -16.6 | -14.04
Cc1c(Cl)cccc1NC(=O)N1CCC2(CC1)NC(=O)CC2C(=O)O (stereo unspecified) | -15.04 | 24.28
Cc1ccc(CN2CCC3(CC2)CC(c2cccnc2)CO3)s1.O=C(O)C(F)(F)F.O=C(O)C(F)(F)F (stereo unspecified) | -4.432 | 28.4
CSCCC1c2nc[nH]c2CCN1Cc1ccnc2ccccc12 (stereo unspecified) | 1.101 | 27.05
CCn1ccnc1CN1CCC(Oc2ccccc2F)(C(=O)O)CC1 | -3.243 | -20.86
COc1ccc(OC)c(Sc2ncccc2C(=O)NCC2CC2)c1 | 9.707 | -22.22
CSCC[C@H](NC(=O)CCn1ccc2c(Cl)cccc21)C(=O)O | 2.054 | -15.27
Cc1cccc(S(=O)(=O)N2Cc3nccn3CC(CN(C)C)C2)c1 (stereo unspecified) | -4.728 | 6.311
COC(=O)N1CC(C)=C(C)CN1C(=O)Nc1cccc(Cl)c1 | -6.29 | -0.3872
CCn1c(C)nnc1SCCn1cc(-c2ncc[nH]2)nn1 | 9.836 | 13.01
Cc1cc(C)c(CNc2nc3ccccc3cc2CO)c(=O)[nH]1 | -6.082 | 0.3689
CCSc1cc(C(=O)NCC(C)(C)N(C)C)ccn1 | 0.5668 | -39.25
COC(=O)CC(c1ccccc1)c1oc(C)cc(=O)c1O (stereo unspecified) | -3.493 | -54.92
COc1cccc(C)c1C(=O)N1C[C@@H](CN(C)C)[C@@H](CO)C1 | 3.621 | 24.34
O=C(Nc1nccs1)C1CCCN1Cc1ccccn1 (stereo unspecified) | 3.977 | 16.73
COc1ccc(N2CCC(N3CCOC(C(F)(F)F)C3)CC2)cc1 (stereo unspecified) | -45.53 | 11.79
CC(C)COCc1cncc2c1CCN(Cc1cnn(C)c1)C2.O=C(O)C(F)(F)F.O=C(O)C(F)(F)F | 0.1692 | 45.64
CC(C)(C)CNC[C@H]1Cn2c(-c3ccccc3)cnc2CO1 | -5.649 | 3.74
CN(C)c1nccc(CNC(=O)NCc2ccco2)n1 | 4.651 | -19.93
CCn1nc(C)c(CCNC(=O)c2cccc(-n3cccn3)c2)c1C | -5.398 | 8.879
COCCOc1ccc(CNc2nc3ccccc3o2)cn1 | 17.66 | -14.84
[H][C@]12CC[C@]([H])(CN(c3ncccn3)C1)N(C(=O)c1ccc[nH]1)C2 | 11.13 | 18.29

Some entries from above, unchanged:

{"compound": "O=C(CN1C(=O)c2ccccc2CS1(=O)=O)c1ccc(Cl)cc1", "Toxoplasma": -1.011, "Leishmania in macrophages": -4.31}
{"compound": "Cc1ccc(C2(C(=O)N3CCC(n4cc(C(C)O)nn4)CC3)CC2)cc1", "stereo": "stereo unspecified", "Toxoplasma": -0.699, "Leishmania in macrophages": -10.19}
{"compound": "CN(C)c1nccc(CNC(=O)NCc2ccco2)n1", "Toxoplasma": 4.651, "Leishmania in macrophages": -19.93}